Cell number after 72 h of treatment

Source: doi:10.1371/journal.pone.0140310, primary screening data, rounded.

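The test systems are human melanoma cell lines, treated with two drugs together for 72 h and then stained and imaged. Each value is the count of nuclei relative to DMSO-treated wells, in %, so that 100 equals the control. Every drug was used at one fixed concentration, the higher of two screened. No replicate spread is given; individual values may be noisy.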 This is part of the screen, not chosen by result.

Compounds and concentrations:
AZD7762, 0.1 µM: NC(=O)Nc1cc(-c2cccc(F)c2)sc1C(=O)N[C@H]1CCCNC1
vincristine, 0.0005 µM: CC[C@]1(O)C[C@H]2CN(CCc3c([nH]c4ccccc34)[C@@](C(=O)OC)(c3cc4c(cc3OC)N(C=O)[C@H]3[C@@](O)(C(=O)OC)[C@H](OC(C)=O)[C@]5(CC)C=CCN6CC[C@]43[C@@H]65)C2)C1
cediranib, 2 µM: COc1cc2c(Oc3ccc4[nH]c(C)cc4c3F)ncnc2cc1OCCCN1CCCC1
VX-702, 2 µM: NC(=O)c1ccc(N(C(N)=O)c2c(F)cccc2F)nc1-c1ccc(F)cc1F
OSU-03012, 5 µM: NCC(=O)Nc1ccc(-n2nc(C(F)(F)F)cc2-c2ccc3c(ccc4ccccc43)c2)cc1
crizotinib, 1 µM: C[C@@H](Oc1cc(-c2cnn(C3CCNCC3)c2)cnc1N)c1c(Cl)ccc(F)c1Cl
tozasertib, 0.03 µM: Cc1cc(Nc2cc(N3CCN(C)CC3)nc(Sc3ccc(NC(=O)C4CC4)cc3)n2)n[nH]1
BI-D1870, 1 µM: CC(C)CCN1c2nc(Nc3cc(F)c(O)c(F)c3)ncc2N(C)C(=O)C1C (stereo not given)
SNS-032, 0.05 µM: CC(C)(C)c1cnc(CSc2cnc(NC(=O)C3CCNCC3)s2)o1
BI-78D3, 1 µM: O=c1[nH]nc(Sc2ncc([N+](=O)[O-])s2)n1-c1ccc2c(c1)OCCO2
AS-252424, 5 µM: O=C1NC(=O)/C(=C/c2ccc(-c3ccc(F)cc3O)o2)S1
ZM336372, 10 µM: Cc1ccc(NC(=O)c2cccc(N(C)C)c2)cc1NC(=O)c1ccc(O)cc1
ruxolitinib, 5 µM: N#CC[C@H](C1CCCC1)n1cc(-c2ncnc3[nH]ccc23)cn1
CP-690550, 5 µM: C[C@@H]1CCN(C(=O)CC#N)C[C@@H]1N(C)c1ncnc2[nH]ccc12

With VX-702 + BI-D1870 the screen read COLO 792: 88.5; C32: 101; COLO 829: 93.4; COLO 800: 64.4. With OSU-03012 + BI-D1870 the screen read COLO 792: 72.9; C32: 132; COLO 829: 75.7; COLO 800: 49.1. For AS-252424 + cediranib the values were COLO 792: 89.8; C32: 114; COLO 829: 105; COLO 800: 58.0. With ZM336372 + CP-690550 the screen read COLO 792: 77.3; C32: 105; COLO 829: 125; COLO 800: 82.1. BI-78D3 + ruxolitinib gave COLO 792: 70.4; C32: 90.8; COLO 829: 99.0; COLO 800: 111. For AZD7762 + AS-252424 the values were COLO 792: 76.7; C32: 86.9; COLO 829: 120; COLO 800: 82.4.

Results for SNS-032 + vincristine are COLO 792: 85.4; C32: 78.1; COLO 829: 101; COLO 800: 54.9. With tozasertib + OSU-03012 the screen read COLO 792: 68.0; C32: 94.0; COLO 829: 59.9; COLO 800: 33.7. For CP-690550 + tozasertib the values were COLO 792: 75.0; C32: 72.5; COLO 829: 90.7; COLO 800: 53.2. Results for SNS-032 + VX-702 are COLO 792: 72.8; C32: 63.6; COLO 829: 77.9; COLO 800: 75.7. With SNS-032 + ruxolitinib the screen read COLO 792: 87.2; C32: 81.4; COLO 829: 81.4; COLO 800: 157. ruxolitinib + ZM336372 gave COLO 792: 89.7; C32: 109; COLO 829: 111; COLO 800: 101.

For ruxolitinib + AZD7762 the values were COLO 792: 68.6; C32: 72.5; COLO 829: 65.1; COLO 800: 94.9. For crizotinib + ruxolitinib the values were COLO 792: 117; C32: 91.6; COLO 829: 91.6; COLO 800: 67.8. With BI-78D3 + crizotinib the screen read COLO 792: 119; C32: 77.0; COLO 829: 92.5; COLO 800: 75.2. BI-78D3 + AS-252424 gave COLO 792: 102; C32: 91.2; COLO 829: 102; COLO 800: 69.0. With cediranib + VX-702 the screen read COLO 792: 68.0; C32: 88.8; COLO 829: 76.0; COLO 800: 56.1. ZM336372 + vincristine gave COLO 792: 95.3; C32: 54.6; COLO 829: 85.1; COLO 800: 136.

For SNS-032 + ZM336372 the values were COLO 792: 78.7; C32: 91.1; COLO 829: 98.6; COLO 800: 68.3. cediranib + vincristine gave COLO 792: 65.9; C32: 63.4; COLO 829: 111; COLO 800: 61.5. For AS-252424 + vincristine the values were COLO 792: 112; C32: 74.2; COLO 829: 56.9; COLO 800: 39.3. With CP-690550 + ruxolitinib the screen read COLO 792: 118; C32: 92.0; COLO 829: 121; COLO 800: 106. For ZM336372 + tozasertib the values were COLO 792: 75.7; C32: 79.6; COLO 829: 82.3; COLO 800: 41.2. ruxolitinib + AS-252424 gave COLO 792: 121; C32: 83.9; COLO 829: 111; COLO 800: 99.3.

Results for cediranib + BI-D1870 are COLO 792: 76.8; C32: 89.4; COLO 829: 107; COLO 800: 46.1. For OSU-03012 + VX-702 the values were COLO 792: 66.1; C32: 97.0; COLO 829: 82.3; COLO 800: 62.4. For cediranib + ruxolitinib the values were COLO 792: 112; C32: 93.4; COLO 829: 107; COLO 800: 86.2. For OSU-03012 + ruxolitinib the values were COLO 792: 44.0; C32: 93.6; COLO 829: 50.7; COLO 800: 33.0. Results for OSU-03012 + vincristine are COLO 792: 58.5; C32: 97.5; COLO 829: 61.5; COLO 800: 69.8. With BI-D1870 + tozasertib the screen read COLO 792: 78.7; C32: 66.0; COLO 829: 77.8; COLO 800: 24.9.

CP-690550 + BI-D1870 gave COLO 792: 86.3; C32: 102; COLO 829: 111; COLO 800: 62.6. Results for AS-252424 + OSU-03012 are COLO 792: 74.8; C32: 91.6; COLO 829: 63.0; COLO 800: 70.6. For cediranib + tozasertib the values were COLO 792: 67.4; C32: 83.3; COLO 829: 74.5; COLO 800: 47.2. With AZD7762 + vincristine the screen read COLO 792: 58.0; C32: 48.2; COLO 829: 60.7; COLO 800: 48.7. Results for BI-78D3 + BI-D1870 are COLO 792: 98.0; C32: 74.5; COLO 829: 94.6; COLO 800: 51.2. For cediranib + ZM336372 the values were COLO 792: 102; C32: 91.5; COLO 829: 97.4; COLO 800: 149.

Results for AZD7762 + tozasertib are COLO 792: 39.8; C32: 47.7; COLO 829: 66.5; COLO 800: 41.8. For VX-702 + CP-690550 the values were COLO 792: 87.4; C32: 99.0; COLO 829: 104; COLO 800: 119.

Some entries from above, unchanged:

| Combination | COLO 792 | C32 | COLO 829 | COLO 800 |
|---|---|---|---|---|
| ruxolitinib + AZD7762 | 68.6 | 72.5 | 65.1 | 94.9 |
| AS-252424 + OSU-03012 | 74.8 | 91.6 | 63.0 | 70.6 |
| BI-78D3 + ruxolitinib | 70.4 | 90.8 | 99.0 | 111 |